Laboratory results reported in PubChem BioAssay AID248 (DTP/NCI, 2004).
The list shows only some results of the screen, not a fair sample: it is rich in T/C values a quarter to a half above the control, in often repeated tests (any T/C) and in doses without a T/C. Other doses and runs of a compound stand elsewhere. T/C gives the treated animals as a percentage of the vehicle group. Some doses have a count of surviving animals in place of a T/C: the source holds a T/C of zero for them, seemingly a mark for toxic or unscored doses. Some doses without a T/C left all or most animals alive at the check, yet need not have been tolerated: the source hardly ever lists a survival T/C far under the control, and the zero likely stands for such cases as well. Survivors were counted at the toxicity check, usually on the fifth day, unless a day is given; later deaths do not show. Schedule codes are those of the source, read here as Q, the interval in days (D) or hours (H), X, the number of doses. Some schedules carry Z or #; the key to these is not given. Some structures stand for samples that the source files as different forms (salt, stereo form or complex); doses refer to the form tested. For survival time, this PubChem deposit counts one and a half times the control or more as active, and values a quarter to a half above the control carry no call in these data; other NCI protocols may use other cut-offs. Some T/C values carry the count of animals alive at the toxicity check (mostly the fifth day); without a count, all were alive then.

Tested on: L1210 leukemia ip in BDF1 mice, survival T/C
Test: NCI In Vivo Anticancer Drug Screen. Data for tumor model L1210 Leukemia (intraperitoneal) in B6D2F1 (BDF1) mice
Details: higher T/C = longer survival
[1] = T/C endpoint: mean survival time, dose: 200.0 mg/kg/injection, schedule: Q01DX001 (ip), vehicle: saline
[2] = T/C endpoint: mean survival time, dose: 400.0 mg/kg/injection, schedule: Q01DX001 (ip), vehicle: saline
[3] = T/C endpoint: mean survival time, dose: 200.0 mg/kg/injection, schedule: Q01DX009 (ip), vehicle: saline with Tween-80
[4] = T/C endpoint: mean survival time, dose: 400.0 mg/kg/injection, schedule: Q01DX001 (ip), vehicle: saline with Tween-80

With `O=P(Oc1ccc(OP(=O)(N2CC2)N2CC2)cc1)(N1CC1)N1CC1` the T/C (T/C endpoint: mean survival time, dose: 32.0 mg/kg/injection, schedule: Q01DX009 (ip), vehicle: saline) was 141 % of control, the T/C (T/C endpoint: mean survival time, dose: 75.0 mg/kg/injection, schedule: Q01DX001 (ip), vehicle: saline) was 133 % of control and the T/C (T/C endpoint: mean survival time, dose: 150.0 mg/kg/injection, schedule: Q01DX001 (ip), vehicle: saline) was 133 % of control.
With `NC(N)=Nc1ccc(/C=C2\C=Cc3ccccc32)cc1` the survivor count (T/C endpoint: mean survival time, dose: 100.0 mg/kg/injection, schedule: Q01DX001 (ip), vehicle: carboxymethylcellulose (CMC)) was 6 of 6 and the survivor count (T/C endpoint: mean survival time, dose: 400.0 mg/kg/injection, schedule: Q01DX001 (ip), vehicle: carboxymethylcellulose (CMC)) was 0 of 6.
`CCCCCc1ccc(C)cc1OC(=O)CCl` was tested, and the survivor count (T/C endpoint: mean survival time, dose: 94.0 mg/kg/injection, schedule: Q01DX Z (ip), vehicle: methylcellulose (MC)) was 3 of 6.
With `CC(C)=CC1C(C(=O)OC2CCN(C)CC2)C1(C)C` (centres undefined) the survivor count [1] was 0 of 6 and the survivor count [2] was 0 of 6.
`N=C(N)SC(c1ccccc1)c1ccccc1` was tested, and the survivor count (T/C endpoint: mean survival time, dose: 100.0 mg/kg/injection, schedule: Q01DX001 (ip), vehicle: Klucel (hydroxypropylcellulose) (HPC)) was 1 of 3, the survivor count (T/C endpoint: mean survival time, dose: 200.0 mg/kg/injection, schedule: Q01DX001 (ip), vehicle: Klucel (hydroxypropylcellulose) (HPC)) was 0 of 3 and the survivor count [1] was 0 of 6. For the same compound, the survivor count (T/C endpoint: mean survival time, dose: 400.0 mg/kg/injection, schedule: Q01DX001 (ip), vehicle: Klucel (hydroxypropylcellulose) (HPC)) was 0 of 3 and the survivor count [2] was 0 of 6.
In the case of `O=Nc1c(O)ccc2ccccc12`, the survivor count (T/C endpoint: mean survival time, dose: 50.0 mg/kg/injection, schedule: Q01DX009 (ip), vehicle: Klucel (hydroxypropylcellulose) (HPC)) is reported as 6 of 6, the survivor count (T/C endpoint: mean survival time, dose: 100.0 mg/kg/injection, schedule: Q01DX001 (ip), vehicle: saline) is reported as 2 of 4 and the survivor count (T/C endpoint: mean survival time, dose: 100.0 mg/kg/injection, schedule: Q01DX009 (ip), vehicle: Klucel (hydroxypropylcellulose) (HPC)) is reported as 1 of 6. The survivor count [1] was 0 of 4 and the survivor count [2] was 0 of 4.
`CCCCOC(=O)Nc1cccc(O)c1` was tested, and the survivor count (T/C endpoint: mean survival time, dose: 400.0 mg/kg/injection, schedule: Q01DX009 (ip), vehicle: saline with Tween-80) was 5 of 6.
In the case of `CC(/C=N\N)=N\N`, the survivor count (T/C endpoint: mean survival time, dose: 60.0 mg/kg/injection, schedule: Q01DX Z (oral), vehicle: saline) is reported as 6 of 6, the survivor count (T/C endpoint: mean survival time, dose: 120.0 mg/kg/injection, schedule: Q01DX Z (ip), vehicle: saline) is reported as 4 of 6 and the survivor count (T/C endpoint: mean survival time, dose: 120.0 mg/kg/injection, schedule: Q01DX Z (oral), vehicle: saline) is reported as 1 of 6.
In the case of `Nc1nc(CCl)cs1`, the survivor count (T/C endpoint: mean survival time, dose: 200.0 mg/kg/injection, schedule: Q04DX003 (ip), vehicle: Klucel (hydroxypropylcellulose) (HPC)) is reported as 0 of 6 and the survivor count (T/C endpoint: mean survival time, dose: 400.0 mg/kg/injection, schedule: Q04DX003 (ip), vehicle: Klucel (hydroxypropylcellulose) (HPC)) is reported as 0 of 6.
For `O=C(Nc1ccccc1C(=O)N/N=C/c1c(O)ccc2ccccc12)c1ccccc1Cl`, the survivor count (T/C endpoint: mean survival time, dose: 200.0 mg/kg/injection, schedule: Q04DX002 (ip), vehicle: Klucel (hydroxypropylcellulose) (HPC)) was 3 of 3.
`CN(C)C=NCCNc1ccc([N+](=O)[O-])cn1` was tested, and the survivor count [3] was 5 of 6 and the survivor count [4] was 1 of 6.
With `NC(=O)C1OC(n2cnc3c(N)ncnc32)C(O)C1O` (centres undefined) the T/C (T/C endpoint: mean survival time, dose: 0.39 mg/kg/injection, schedule: Q01DX005 (ip), vehicle: saline) was 125 % of control [4 of 6 alive], the survivor count (T/C endpoint: mean survival time, dose: 0.78 mg/kg/injection, schedule: Q01DX005 (ip), vehicle: saline) was 0 of 6 and the survivor count (T/C endpoint: mean survival time, dose: 1.56 mg/kg/injection, schedule: Q01DX005 (ip), vehicle: saline) was 3 of 6. For the same compound, the survivor count (T/C endpoint: mean survival time, dose: 3.12 mg/kg/injection, schedule: Q01DX005 (ip), vehicle: saline) was 0 of 6, the survivor count (T/C endpoint: mean survival time, dose: 3.12 mg/kg/injection, schedule: Q01DX009 (ip), vehicle: saline) was 0 of 6 and the survivor count (T/C endpoint: mean survival time, dose: 6.25 mg/kg/injection, schedule: Q01DX005 (ip), vehicle: saline) was 0 of 6. The survivor count (T/C endpoint: mean survival time, dose: 12.5 mg/kg/injection, schedule: Q01DX005 (ip), vehicle: saline) was 0 of 6, the survivor count (T/C endpoint: mean survival time, dose: 25.0 mg/kg/injection, schedule: Q01DX005 (ip), vehicle: saline) was 0 of 6 and the survivor count (T/C endpoint: mean survival time, dose: 50.0 mg/kg/injection, schedule: Q01DX005 (ip), vehicle: saline) was 0 of 6.
With `O=NN(CCCl)C(=O)NC1CCC(=O)NC1=O` (centres undefined) the T/C (T/C endpoint: mean survival time, dose: 4.0 mg/kg/injection, schedule: Q01DX001 (ip), vehicle: other) was 130 % of control, the T/C (T/C endpoint: mean survival time, dose: 31.0 mg/kg/injection, schedule: Q01DX001 (ip), vehicle: other) was 135 % of control and the survivor count (T/C endpoint: mean survival time, dose: 62.0 mg/kg/injection, schedule: Q01DX001 (ip), vehicle: other) was 6 of 6. The survivor count (T/C endpoint: mean survival time, dose: 125.0 mg/kg/injection, schedule: Q01DX001 (ip), vehicle: other) was 6 of 6, the survivor count (T/C endpoint: mean survival time, dose: 250.0 mg/kg/injection, schedule: Q01DX001 (ip), vehicle: other) was 0 of 6 and the survivor count (T/C endpoint: mean survival time, dose: 375.0 mg/kg/injection, schedule: Q01DX001 (ip), vehicle: other) was 0 of 6. For the same compound, the survivor count (T/C endpoint: mean survival time, dose: 500.0 mg/kg/injection, schedule: Q01DX001 (ip), vehicle: other) was 0 of 6, the survivor count (T/C endpoint: mean survival time, dose: 750.0 mg/kg/injection, schedule: Q01DX001 (ip), vehicle: other) was 0 of 6 and the T/C (T/C endpoint: median survival time, dose: 2.5 mg/kg/injection, schedule: Q01DX001 (ip), vehicle: other) was 143 % of control. The T/C (T/C endpoint: median survival time, dose: 2.5 mg/kg/injection, schedule: Q01DX001 (ip), vehicle: saline) was 134 % of control.
For `CC(=O)c1cccc(NC(=O)Oc2ccc(-c3ccccc3)cc2)c1`, the survivor count [3] was 3 of 3 and the survivor count [4] was 6 of 6.
`NC(=Nc1ccc(N)cc1)C(N)=Nc1ccc(N)cc1` was tested, and the T/C [3] was 137 % of control.
